Values from PubChem BioAssay AID602196 (INSERM, 2012).
Test: 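Genes whose knock-down alters cisplatin killing of lung cancer cells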. System: human A549 lung cancer cells. Reagents: siRNA pair against human genes. Time to read-out: 48 h transfection before cisplatin; time from cisplatin to read-out not stated. Challenge: cisplatin at a dose killing half of control-siRNA cells; exact dose and duration not given. Measurement: 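Cisplatin cell death as a shift from the 50% death seen with control siRNA; siRNAs toxic or growth-blocking alone scored 0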. Scale: two-siRNA summed score (-2 to +2): higher = both siRNAs protect from cisplatin killing; -2 means both sensitise. Hit rule: 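siRNAs harmful alone (LDH or WST-1) get 0; others get +1 for less and -1 for more cisplatin killing; genes are active when the two siRNAs give the same sign, summing to ±2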. Calls: active = both siRNAs shift cisplatin killing the same way; inactive = no consistent shift, or siRNA harmful alone.
Shown is one part, drawn at random, of about 23,000 deposited reagents. Of all reagents, 455 (2%) were called active. 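Active includes both protection and sensitisation; some change values fall well beyond the stated -50 to +50 range.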 Entries without a mark were called inactive. Reagents against one gene are numbered here. Not all columns of the deposit are shown. Not given: the amount of reagent.

two-siRNA summed score (-2 to +2), by target gene and reagent
FITM1 (fat storage inducing transmembrane protein 1): #1 0
GADL1 (GAD like acidic amino acid decarboxylase 1): #1 0
CLBA1 (clathrin binding box of aftiphilin containing 1): #1 0
QRFPR (pyroglutamylated RFamide peptide receptor): #1 1
SCYL1 (SCY1 like pseudokinase 1): #1 1
OR8B4 (olfactory receptor family 8 subfamily B member 4): #1 0
RASGRP3 (RAS guanyl releasing protein 3): #1 0
NXT2 (nuclear transport factor 2 like export factor 2): #1 -1
LOC440358: #1 0
IFNL1 (interferon lambda 1): #1 0
LOC388117: #1 0
SALL3 (spalt like transcription factor 3): #1 0
TSHZ3 (teashirt zinc finger homeobox 3): #1 0
NMRK1 (nicotinamide riboside kinase 1): #1 0
DYDC1 (DPY30 domain containing 1): #1 0
LOC401613: #1 1
ZNF33B (zinc finger protein 33B): #1 0
ANKRD13B (ankyrin repeat domain 13B): #1 0
HEY2: #1 0
CRTAC1 (cartilage acidic protein 1): #1 0
GINS2 (GINS complex subunit 2): #1 0
ZNF43 (zinc finger protein 43): #1 0
TAPT1 (transmembrane anterior posterior transformation 1): #1 1

Taken from above:
For “two-siRNA summed score (-2 to +2)”, QRFPR (pyroglutamylated RFamide peptide receptor) shows 1
GINS2 (GINS complex subunit 2), two-siRNA summed score (-2 to +2): 0
Under “two-siRNA summed score (-2 to +2)”, TSHZ3 (teashirt zinc finger homeobox 3) shows 0
OR8B4 (olfactory receptor family 8 subfamily B member 4), two-siRNA summed score (-2 to +2) → 0
Result of RASGRP3 (RAS guanyl releasing protein 3) under “two-siRNA summed score (-2 to +2)”: 0

Additional reagents:
two-siRNA summed score (-2 to +2), by target gene and reagent
PLEKHG4B (pleckstrin homology and RhoGEF domain containing G4B): #1 0
LOC400940: #1 1
ZNF493 (zinc finger protein 493): #1 0; #2 1
UMODL1 (uromodulin like 1): #1 0
CEP44 (centrosomal protein 44): #1 0
TMEM115 (transmembrane protein 115): #1 0
FAM184A (family with sequence similarity 184 member A): #1 0
LINC03025 (long independently transcribed non-coding RNA 3025): #1 0
LHFPL3 (LHFPL tetraspan subfamily member 3): #1 -1
CFAP300 (cilia and flagella associated protein 300): #1 0
F9 (coagulation factor IX): #1 0
DYNLT3 (dynein light chain Tctex-type 3): #1 1
ANKRD35 (ankyrin repeat domain 35): #1 0
CREB1 (cAMP responsive element binding protein 1): #1 -1
LOC401101: #1 0
TMEM74 (transmembrane protein 74): #1 0
GAMT (guanidinoacetate N-methyltransferase): #1 -1
STYK1 (STY kinase 1): #1 0
SDK1 (sidekick cell adhesion molecule 1): #1 -1
CALML4 (calmodulin like 4): #1 0
MPPED2 (metallophosphoesterase domain containing 2): #1 0
SLMAP (sarcolemma associated protein): #1 1
CIBAR2 (CBY1 interacting BAR domain containing 2): #1 0
LOC441450: #1 0
ST8SIA6 (ST8 alpha-N-acetyl-neuraminide alpha-2,8-sialyltransferase 6): #1 1
ECE2 (endothelin converting enzyme 2): #1 0; #2 0
TNS2 (tensin 2): #1 0
LOC440559: #1 1
ABCC6 (ATP binding cassette subfamily C member 6): #1 0
LOC441149: #1 0
ZNRF1 (zinc and ring finger 1): #1 0
CSTF3 (cleavage stimulation factor subunit 3): #1 -1
